Results reported in publication PMC9247205.
These are yes or no findings as the source states them, for the method shown. Binding calls can cover weak binding; strength is not graded here. Tags and fused reporters may be left off the sequences shown.

Assays:
Experiment in all cases: far-Western, overlay or dot blot; total protein extracts (20 µg) of V, 84 and ΔC amoeba transformants on 12% SDS-PAGE, blotted onto nitrocellulose, blocked with PBS-0.02% Tween 20-5% skimmed milk, incubated with 10 mM (so in the source) GST-SF1KQ or His-84KQ; developed with anti-GST or anti-His; only the binder purified
[1] = molecular target: T1, EhU2AF2, full length, overexpressed from pHA-U2AF2 in amoeba transformants (Entamoeba histolytica) (UniProt C4LXB3)
T1 sequence: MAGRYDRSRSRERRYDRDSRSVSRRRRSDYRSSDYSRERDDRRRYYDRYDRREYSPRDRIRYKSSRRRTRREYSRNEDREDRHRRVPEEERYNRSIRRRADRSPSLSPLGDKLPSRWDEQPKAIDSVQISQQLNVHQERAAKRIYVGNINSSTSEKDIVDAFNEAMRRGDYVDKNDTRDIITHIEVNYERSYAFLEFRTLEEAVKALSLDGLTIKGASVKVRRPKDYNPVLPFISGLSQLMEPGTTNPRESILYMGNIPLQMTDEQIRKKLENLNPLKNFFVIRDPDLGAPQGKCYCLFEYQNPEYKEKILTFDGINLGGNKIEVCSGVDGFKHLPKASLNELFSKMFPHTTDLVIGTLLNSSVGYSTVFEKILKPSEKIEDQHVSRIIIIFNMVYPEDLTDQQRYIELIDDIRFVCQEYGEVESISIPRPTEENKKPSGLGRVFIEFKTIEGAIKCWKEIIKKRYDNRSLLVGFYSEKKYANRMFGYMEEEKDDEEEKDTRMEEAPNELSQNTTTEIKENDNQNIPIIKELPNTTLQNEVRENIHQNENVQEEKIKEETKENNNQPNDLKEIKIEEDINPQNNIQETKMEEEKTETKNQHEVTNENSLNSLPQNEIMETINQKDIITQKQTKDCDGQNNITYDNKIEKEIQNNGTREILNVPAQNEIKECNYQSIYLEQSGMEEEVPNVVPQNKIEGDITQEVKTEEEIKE

[2] = molecular target: T2, Endogenous EhU2AF2 in empty vector (V) amoeba transformants (Entamoeba histolytica (endogenous in trophozoites)) (UniProt C4LXB3)
T2 sequence: T1 sequence

[3] = molecular target: T3, 35-kDa protein of amoeba extracts recognised by H6-84KQ, taken by the paper as EhSF1 (Entamoeba histolytica (endogenous in trophozoites)) (UniProt C4M4V3)
T3 sequence: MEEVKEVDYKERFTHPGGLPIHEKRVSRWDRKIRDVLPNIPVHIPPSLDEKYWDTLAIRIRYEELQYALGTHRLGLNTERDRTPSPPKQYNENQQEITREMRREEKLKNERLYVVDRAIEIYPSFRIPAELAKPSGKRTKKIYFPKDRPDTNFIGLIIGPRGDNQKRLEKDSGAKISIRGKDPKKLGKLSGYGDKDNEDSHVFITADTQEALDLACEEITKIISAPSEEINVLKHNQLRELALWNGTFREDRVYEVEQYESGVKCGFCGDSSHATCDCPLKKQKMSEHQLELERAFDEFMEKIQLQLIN

| Substance | binding [1] | binding [2] | binding [3] |
| --- | --- | --- | --- |
| GST-tagged SF1KQ (KH-QUA2 domain of EhSF1) (Entamoeba histolytica) (domain or fragment) | binds | binds | – |
| His-tagged 84KQ (KH-QUA2 domain of EhU2AF2) (Entamoeba histolytica) (domain or fragment) | – | – | binds |
